Our source for the binding values is paper PMC7077221.

Sequences of proteins named here, by UniProt entry; tags and fusion partners are left off.
UniProt P03521: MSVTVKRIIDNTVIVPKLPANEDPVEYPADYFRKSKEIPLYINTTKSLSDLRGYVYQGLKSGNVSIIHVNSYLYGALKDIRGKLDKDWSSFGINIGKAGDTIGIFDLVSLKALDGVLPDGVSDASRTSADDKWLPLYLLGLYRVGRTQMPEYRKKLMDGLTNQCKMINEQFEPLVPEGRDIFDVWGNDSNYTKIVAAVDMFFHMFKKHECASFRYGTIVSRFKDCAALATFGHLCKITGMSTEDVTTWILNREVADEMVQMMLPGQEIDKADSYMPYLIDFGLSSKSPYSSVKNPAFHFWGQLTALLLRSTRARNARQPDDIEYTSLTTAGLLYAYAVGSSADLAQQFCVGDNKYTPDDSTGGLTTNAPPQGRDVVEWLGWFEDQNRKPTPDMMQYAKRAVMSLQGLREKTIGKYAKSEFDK

These are yes or no findings as the source states them, for the method shown. In cells and extracts the contact can be indirect. Some entries that bind do so weakly or less than the wild type. Sequences can lack the tags named with a protein.

The experiment deals with FLAG-tagged nucleoprotein (N) of vesicular stomatitis virus (VSV-N-FLAG) (vesicular stomatitis virus (VSV)) (UniProt P03521). The experiment in a line: co-IP.

B1: HA-tagged tripartite motif protein 41 (TRIM41-HA) (enzyme, UniProt Q8WV44 1-630)
chain: MAAVAMTPNPVQTLQEEAVCAICLDYFTDPVSIGCGHNFCRVCVTQLWGGEDEEDRDELDREEEEEDGEEEEVEAVGAGAGWDTPMRDEDYEGDMEEEVEEEEEGVFWTSGMSRSSWDNMDYVWEEEDEEEDLDYYLGDMEEEDLRGEDEEDEEEVLEEVEEEDLDPVTPLPPPPAPRRCFTCPQCRKSFPRRSFRPNLQLANMVQVIRQMHPTPGRGSRVTDQGICPKHQEALKLFCEVDEEAICVVCRESRSHKQHSVVPLEEVVQEYKAKLQGHVEPLRKHLEAVQKMKAKEERRVTELKSQMKSELAAVASEFGRLTRFLAEEQAGLERRLREMHEAQLGRAGAAASRLAEQAAQLSRLLAEAQERSQQGGLRLLQDIKETFNRCEEVQLQPPEVWSPDPCQPHSHDFLTDAIVRKMSRMFCQAARVDLTLDPDTAHPALMLSPDRRGVRLAERRQEVADHPKRFSADCCVLGAQGFRSGRHYWEVEVGGRRGWAVGAARESTHHKEKVGPGGSSVGSGDASSSRHHHRRRRLHLPQQPLLQREVWCVGTNGKRYQAQSSTEQTLLSPSEKPRRFGVYLDYEAGRLGFYNAETLAHVHTFSAAFLGERVFPFFRVLSKGTRIKLCP
B1: the binding result is “binds”.
